Measured values published in patent publication US20210155712A1.
No constants are given. Whether binding was seen depends on the method and setting. Some results given as binding are weak or reduced against the parent protein; the word gives no strength.

Chains of the proteins cited; added tags and fusions are not shown. Lines headed by an entry give the natural chain unless they say otherwise; changes in a name come on top. A line that says so, or that is headed by a name, gives the form on record, which may keep a tag or linker.
cynomolgus macaque HER3 (G7PIG5, form named): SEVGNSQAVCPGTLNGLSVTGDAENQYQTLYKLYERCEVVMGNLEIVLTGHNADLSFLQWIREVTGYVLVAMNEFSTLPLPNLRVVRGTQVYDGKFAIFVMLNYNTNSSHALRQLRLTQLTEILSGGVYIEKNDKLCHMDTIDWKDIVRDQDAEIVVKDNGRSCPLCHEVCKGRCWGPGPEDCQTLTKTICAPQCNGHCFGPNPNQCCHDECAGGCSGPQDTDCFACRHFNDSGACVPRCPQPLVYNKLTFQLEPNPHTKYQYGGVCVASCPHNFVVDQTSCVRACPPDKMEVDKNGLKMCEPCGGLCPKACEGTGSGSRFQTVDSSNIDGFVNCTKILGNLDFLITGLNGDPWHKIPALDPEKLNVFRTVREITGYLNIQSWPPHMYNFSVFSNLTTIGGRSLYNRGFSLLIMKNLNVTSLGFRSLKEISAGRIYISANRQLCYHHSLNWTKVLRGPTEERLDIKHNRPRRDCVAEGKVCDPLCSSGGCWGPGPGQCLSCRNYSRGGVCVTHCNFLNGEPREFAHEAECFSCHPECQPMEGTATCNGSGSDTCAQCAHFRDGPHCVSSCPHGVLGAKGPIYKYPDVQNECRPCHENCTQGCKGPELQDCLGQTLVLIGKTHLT

Experiments:
[1] = molecular target: cynomolgus macaque HER3 (cynomolgus macaque) (UniProt G7PIG5); experiment: ELISA, plate coated with 0.1 ug/ml target polypeptide, antibody titrated, absorbance 450 nm
[2] = molecular target: cynomolgus macaque HER3 (cynomolgus macaque) (UniProt G7PIG5); experiment: ELISA, plate-coated target

B1: anti-HER3 clone 4-35-B2 IgG1 (antibody, V domains shown)
VH: EIQLQQSGPELVKPGASVKVSCKASGYSFTDYNMYWVKQSHGKSLEWIGHINPYNGGTTYNQKFKGRATLTVDKSSSTAFMHLNSLTSEDSAVYFCVSLRWGAMDYWGQGTSVTVSS
VL: QIVLTQSPALMSASPGEKVTMTCSASSSVSYMYWYQQKPRSSPKPWIYLTSNLASGVPARFSGSGSGTSYSLTISSMEAEDAATYYCQQWNSNPYTFGGGTKLEIKR
binding [1]: binds | binding [2]: binds

B2: anti-HER3 clone 4-35-B4 IgG1 (antibody, V domains shown)
VH: EVQLQQSGAELVKPGASVKLSCTASGFNIKDTYIHWVKQRPDQGLEWIGKIIDPANGNTNYDPKFQGKATITADTSSNTAYLQLSSLSSEDTAVYFCARGLHWGQGTTLTVSS
VL: DIVLTQSPASLAVSLGQRATISCRASKSVSTSGYSYMHWYQQKPGQPPKLLIYLASNLESGVPARFSGSGSGTDFTLNIHPVEEEDAATYYCQHSRELPYTFGGGTKLEIKR
binding [1]: binds | binding [2]: binds
